Test results published in article PMC9810639.
No constants are given. Whether binding was seen depends on the method and setting. In cells and extracts the contact can be indirect. Some results given as binding are weak or reduced against the parent protein; the word gives no strength. Tags and fused reporters may be left off the sequences shown.

Biological target: T1, CIPK9 fused with cLUC (UniProt Q9MAM1)
T1 sequence: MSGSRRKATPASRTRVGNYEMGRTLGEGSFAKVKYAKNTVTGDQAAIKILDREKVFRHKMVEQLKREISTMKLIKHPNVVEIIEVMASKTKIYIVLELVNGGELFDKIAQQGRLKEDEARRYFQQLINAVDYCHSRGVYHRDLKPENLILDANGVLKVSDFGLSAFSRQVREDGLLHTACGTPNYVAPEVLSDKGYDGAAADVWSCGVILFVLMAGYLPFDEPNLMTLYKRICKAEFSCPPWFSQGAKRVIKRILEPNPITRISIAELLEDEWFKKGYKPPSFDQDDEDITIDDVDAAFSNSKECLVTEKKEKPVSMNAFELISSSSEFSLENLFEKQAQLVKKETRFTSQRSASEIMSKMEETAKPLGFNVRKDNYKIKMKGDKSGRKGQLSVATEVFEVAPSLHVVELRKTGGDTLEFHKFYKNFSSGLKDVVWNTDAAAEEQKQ
Assay: split reporter; split-luciferase complementation (LUC) imaging in N. benthamiana leaves co-infiltrated with Agrobacterium GV3101 carrying pairs of nLUC and cLUC constructs plus p19; leaves sprayed with 1 mM D-luciferin 36-48 h after infiltration, CCD imaging

With “CBL2 fused to nLUC (from UniProt Q8LAS7 1-226)” as the substance, how does the binding read?
The binding was “binds”.
